Source: patent US6534313B1, “Genetically modified plants having modulated brassinosteroid signaling” (The Salk Institute for Biological Studies, priority 1999, dated 2003)

Experiment: Quantitative analysis of endogenous brassinosteroids in rosettes by gas chromatography-selected ion analysis with internal standards
Parameters: species or system Arabidopsis
Settings: for endogenous level in bas1-DphyB-4 compared with phyB-4: bas1-DphyB-4 versus phyB-4 plants; for Brassinosteroid levels: rosettes, five weeks on soil, short day

SMILES	endogenous level in bas1-DphyB-4 compared with phyB-4	Brassinosteroid levels (phyB-4 plants)	Brassinosteroid levels (bas1-D phyB-4 plants)
CC(C)[C@H](C)[C@@H](O)[C@H](O)[C@@H](C)[C@H]1CC[C@H]2[C@@H]3COC(=O)[C@H]4C[C@H](O)[C@H](O)C[C@]4(C)[C@H]3CC[C@]12C [BL, brassinolide]	not detected	0.32 ng/g fresh weight	–
CC(C)[C@H](C)[C@@H](O)[C@H](O)[C@@H](C)[C@H]1CC[C@H]2[C@@H]3CC[C@H]4C[C@@H](O)CC[C@]4(C)[C@H]3CC[C@]12C [6-deoxoTE, 6-deoxoteasterone]	increased accumulation	0.19 ng/g fresh weight	0.26 ng/g fresh weight
CC(C)[C@H](C)[C@@H](O)[C@H](O)[C@@H](C)[C@H]1CC[C@H]2[C@@H]3CC(=O)[C@H]4C[C@H](O)[C@H](O)C[C@]4(C)[C@H]3CC[C@]12C [CS, castasterone]	greatly reduced	0.13 ng/g fresh weight	0.02 ng/g fresh weight
CC(C)[C@H](C)[C@@H](O)[C@H](O)[C@@H](C)[C@H]1CC[C@H]2[C@@H]3CC[C@H]4C[C@H](O)[C@H](O)C[C@]4(C)[C@H]3CC[C@]12C [6-deoxoCS, 6-deoxocastasterone]	greatly reduced	0.79 ng/g fresh weight	0.04 ng/g fresh weight
